Our source for the log2 fold change values is the supplement of paper PMC12819154, “High-throughput peptide-centric local stability assay extends protein–ligand identification to membrane proteins, tissues and bacteria” (Nature Structural & Molecular Biology, 2025).

Amino acid sequences for entries named in this document (tags omitted). A change or cut given only in a name is not applied to a line headed by its entry.
UniProt Q8CIM8, whole entry: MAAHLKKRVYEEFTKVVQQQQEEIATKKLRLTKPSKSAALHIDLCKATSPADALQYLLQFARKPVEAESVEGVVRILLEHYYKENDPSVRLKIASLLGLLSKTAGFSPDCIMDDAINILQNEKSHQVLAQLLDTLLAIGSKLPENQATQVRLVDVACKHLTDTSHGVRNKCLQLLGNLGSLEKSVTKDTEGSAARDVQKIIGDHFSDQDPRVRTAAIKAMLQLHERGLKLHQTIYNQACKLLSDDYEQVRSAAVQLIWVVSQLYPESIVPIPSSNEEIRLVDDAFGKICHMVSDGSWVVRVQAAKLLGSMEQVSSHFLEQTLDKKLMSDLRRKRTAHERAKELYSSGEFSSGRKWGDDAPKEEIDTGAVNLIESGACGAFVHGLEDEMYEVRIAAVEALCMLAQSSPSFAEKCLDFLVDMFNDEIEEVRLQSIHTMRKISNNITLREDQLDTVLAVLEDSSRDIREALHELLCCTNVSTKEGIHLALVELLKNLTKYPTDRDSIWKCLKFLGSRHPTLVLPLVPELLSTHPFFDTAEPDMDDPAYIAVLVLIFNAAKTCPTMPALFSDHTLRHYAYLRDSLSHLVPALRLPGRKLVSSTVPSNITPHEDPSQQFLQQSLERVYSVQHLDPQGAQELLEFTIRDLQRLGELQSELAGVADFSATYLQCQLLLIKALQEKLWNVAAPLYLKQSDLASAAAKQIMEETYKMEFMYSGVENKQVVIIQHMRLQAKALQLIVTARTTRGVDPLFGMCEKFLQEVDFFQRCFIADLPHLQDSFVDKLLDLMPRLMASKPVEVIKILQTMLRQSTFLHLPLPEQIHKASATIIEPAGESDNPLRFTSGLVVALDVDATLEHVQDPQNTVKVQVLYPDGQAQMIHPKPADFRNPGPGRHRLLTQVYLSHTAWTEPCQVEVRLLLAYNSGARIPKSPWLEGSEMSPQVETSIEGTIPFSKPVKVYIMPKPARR
UniProt Q8K0S2: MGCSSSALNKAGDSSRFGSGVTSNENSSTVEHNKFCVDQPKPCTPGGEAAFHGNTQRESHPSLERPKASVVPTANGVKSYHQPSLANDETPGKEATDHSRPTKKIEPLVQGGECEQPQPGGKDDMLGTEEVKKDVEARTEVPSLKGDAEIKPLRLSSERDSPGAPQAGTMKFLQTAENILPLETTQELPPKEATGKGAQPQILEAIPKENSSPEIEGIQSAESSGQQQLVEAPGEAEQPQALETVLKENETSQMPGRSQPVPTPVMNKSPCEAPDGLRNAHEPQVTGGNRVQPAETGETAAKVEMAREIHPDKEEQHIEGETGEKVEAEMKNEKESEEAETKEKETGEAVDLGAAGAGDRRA
UniProt Q8CI71: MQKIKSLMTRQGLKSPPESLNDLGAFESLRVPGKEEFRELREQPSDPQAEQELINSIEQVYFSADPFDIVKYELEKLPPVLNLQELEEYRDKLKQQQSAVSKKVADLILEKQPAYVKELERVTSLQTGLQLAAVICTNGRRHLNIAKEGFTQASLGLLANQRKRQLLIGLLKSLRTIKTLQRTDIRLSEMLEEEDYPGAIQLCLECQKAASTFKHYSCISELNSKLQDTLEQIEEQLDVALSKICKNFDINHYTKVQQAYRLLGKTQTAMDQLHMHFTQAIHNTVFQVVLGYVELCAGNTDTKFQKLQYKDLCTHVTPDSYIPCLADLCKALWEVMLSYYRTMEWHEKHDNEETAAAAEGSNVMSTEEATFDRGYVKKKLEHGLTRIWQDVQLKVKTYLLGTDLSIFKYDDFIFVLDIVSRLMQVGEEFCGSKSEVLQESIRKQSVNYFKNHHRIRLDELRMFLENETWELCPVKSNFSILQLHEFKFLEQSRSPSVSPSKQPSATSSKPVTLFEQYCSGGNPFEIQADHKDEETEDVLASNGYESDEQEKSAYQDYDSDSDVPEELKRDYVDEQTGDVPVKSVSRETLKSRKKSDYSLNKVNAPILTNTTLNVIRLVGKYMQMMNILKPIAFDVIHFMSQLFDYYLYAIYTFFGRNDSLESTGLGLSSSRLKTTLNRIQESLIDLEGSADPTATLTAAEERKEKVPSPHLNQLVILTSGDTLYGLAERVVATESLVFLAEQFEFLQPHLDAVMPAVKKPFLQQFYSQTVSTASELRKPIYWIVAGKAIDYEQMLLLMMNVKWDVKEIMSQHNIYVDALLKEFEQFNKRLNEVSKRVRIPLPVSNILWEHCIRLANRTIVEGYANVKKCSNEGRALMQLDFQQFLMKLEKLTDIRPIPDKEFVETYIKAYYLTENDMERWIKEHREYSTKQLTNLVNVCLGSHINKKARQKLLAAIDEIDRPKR
UniProt Q8CIG9: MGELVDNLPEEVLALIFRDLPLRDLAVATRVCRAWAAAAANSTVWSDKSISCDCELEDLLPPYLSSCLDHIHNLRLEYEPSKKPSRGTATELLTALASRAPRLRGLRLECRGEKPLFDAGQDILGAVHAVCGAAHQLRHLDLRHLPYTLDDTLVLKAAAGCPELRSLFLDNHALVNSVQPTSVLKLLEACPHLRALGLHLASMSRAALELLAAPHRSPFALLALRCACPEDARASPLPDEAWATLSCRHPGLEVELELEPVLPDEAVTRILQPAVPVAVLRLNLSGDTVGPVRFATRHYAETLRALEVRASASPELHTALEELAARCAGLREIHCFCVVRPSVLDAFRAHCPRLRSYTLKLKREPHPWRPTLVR
UniProt Q8CG47, whole entry: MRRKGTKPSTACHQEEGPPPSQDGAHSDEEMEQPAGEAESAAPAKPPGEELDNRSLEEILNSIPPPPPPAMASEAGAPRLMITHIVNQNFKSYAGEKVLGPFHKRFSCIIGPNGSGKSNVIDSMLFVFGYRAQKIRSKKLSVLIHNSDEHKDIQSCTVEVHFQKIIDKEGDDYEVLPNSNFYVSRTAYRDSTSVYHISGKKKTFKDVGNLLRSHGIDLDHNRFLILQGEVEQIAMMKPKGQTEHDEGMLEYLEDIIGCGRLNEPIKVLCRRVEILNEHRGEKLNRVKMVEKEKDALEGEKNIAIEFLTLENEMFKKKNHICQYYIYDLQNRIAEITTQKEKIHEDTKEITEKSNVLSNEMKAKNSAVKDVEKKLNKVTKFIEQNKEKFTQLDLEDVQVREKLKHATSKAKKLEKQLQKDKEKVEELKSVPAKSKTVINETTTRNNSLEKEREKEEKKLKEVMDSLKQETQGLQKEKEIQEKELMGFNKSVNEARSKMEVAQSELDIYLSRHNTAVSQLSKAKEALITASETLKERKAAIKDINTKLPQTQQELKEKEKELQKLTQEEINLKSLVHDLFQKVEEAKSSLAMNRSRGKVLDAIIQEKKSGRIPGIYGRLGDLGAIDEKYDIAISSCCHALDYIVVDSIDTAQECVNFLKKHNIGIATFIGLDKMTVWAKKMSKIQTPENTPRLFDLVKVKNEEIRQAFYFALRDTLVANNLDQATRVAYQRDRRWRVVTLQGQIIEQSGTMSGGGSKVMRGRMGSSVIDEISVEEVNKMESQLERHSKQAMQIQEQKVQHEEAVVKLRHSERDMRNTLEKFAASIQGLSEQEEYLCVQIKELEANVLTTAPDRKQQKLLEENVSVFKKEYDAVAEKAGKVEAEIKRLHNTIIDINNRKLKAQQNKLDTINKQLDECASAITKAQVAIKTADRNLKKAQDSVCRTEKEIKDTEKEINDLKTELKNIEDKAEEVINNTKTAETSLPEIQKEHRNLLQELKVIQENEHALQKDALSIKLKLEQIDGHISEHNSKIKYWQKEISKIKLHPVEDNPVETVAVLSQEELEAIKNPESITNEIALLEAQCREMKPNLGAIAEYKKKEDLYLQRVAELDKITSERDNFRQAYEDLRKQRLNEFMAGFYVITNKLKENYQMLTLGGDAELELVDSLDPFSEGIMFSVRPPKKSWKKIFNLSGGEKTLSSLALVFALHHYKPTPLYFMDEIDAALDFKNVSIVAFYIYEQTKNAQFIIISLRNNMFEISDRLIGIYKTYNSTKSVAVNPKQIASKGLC

The other results are listed elsewhere or left out. Most entries show no effect beyond the scatter of the controls.

Compound in the assay: CN[C@@H]1C[C@H]2O[C@@](C)([C@@H]1OC)n1c3ccccc3c3c4c(c5c6ccccc6n2c5c31)C(=O)NC4 [staurosporine]
The assay can be described thus: log2 fold change of tryptic peptide abundance, ligand vs vehicle (limited proteolysis) (log2 ratio); higher = more trypsin-susceptible (destabilized). The settings on record: ligand concentration: 20 uM; sample: mouse liver crude lysate; replicate design: treated separately.
Take “UniProt Q8CIM8 (peptide sequence: ICHMVSDGSWVVR, peptide start residue: 288)”: the log2 fold change was -0.648.

On to “UniProt Q8K0S2 (peptide sequence: NAHEPQVTGGNR, peptide start residue: 279)”, for which the log2 fold change came out at 0.332.

As for “UniProt Q8CI71 (peptide sequence: LLAAIDEIDRPK, peptide start residue: 952)”, the log2 fold change was 0.297.

Regarding “UniProt Q8CIG9 (peptide sequence: ILQPAVPVAVLR, peptide start residue: 270)”, the log2 fold change was -0.194.

Regarding “UniProt Q8CG47 (peptide sequence: EKEIQEK, peptide start residue: 475)”, the log2 fold change came out at 0.154.
